Substitutions are numbered along the chain they refer to. Like-named read-outs stand apart in the source and are kept apart here. No constants are given. Whether binding was seen depends on the method and setting. Binding seen in cells or lysates may run through a third protein. Some entries that bind do so weakly or less than the wild type. For some assays here: Where a sequence is shown, tags or fusion partners need not be part of it. Each block holds one molecule with its values, some of them ahead of it.
Assays:
Assay in all cases: co-IP
[1] = molecular target: T1, DCX (endogenous, E17 rat brain) (rat (endogenous in E17 rat brain)) (UniProt Q9ESI7)
T1 sequence: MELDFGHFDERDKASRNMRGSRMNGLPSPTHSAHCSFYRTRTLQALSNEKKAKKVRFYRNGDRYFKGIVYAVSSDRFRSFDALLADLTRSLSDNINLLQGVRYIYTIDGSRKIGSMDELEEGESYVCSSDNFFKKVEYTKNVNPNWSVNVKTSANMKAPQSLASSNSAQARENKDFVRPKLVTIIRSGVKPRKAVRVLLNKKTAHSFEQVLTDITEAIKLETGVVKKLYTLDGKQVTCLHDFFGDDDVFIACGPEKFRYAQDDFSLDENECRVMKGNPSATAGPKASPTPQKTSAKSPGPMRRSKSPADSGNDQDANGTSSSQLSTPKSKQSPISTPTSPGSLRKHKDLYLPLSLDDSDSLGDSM

Protein sequences, listed by entry. Tags and fused reporters are not part of them. Lines headed by an entry give the natural chain unless they say otherwise; changes in a name come on top.
UniProt Q6P5H2: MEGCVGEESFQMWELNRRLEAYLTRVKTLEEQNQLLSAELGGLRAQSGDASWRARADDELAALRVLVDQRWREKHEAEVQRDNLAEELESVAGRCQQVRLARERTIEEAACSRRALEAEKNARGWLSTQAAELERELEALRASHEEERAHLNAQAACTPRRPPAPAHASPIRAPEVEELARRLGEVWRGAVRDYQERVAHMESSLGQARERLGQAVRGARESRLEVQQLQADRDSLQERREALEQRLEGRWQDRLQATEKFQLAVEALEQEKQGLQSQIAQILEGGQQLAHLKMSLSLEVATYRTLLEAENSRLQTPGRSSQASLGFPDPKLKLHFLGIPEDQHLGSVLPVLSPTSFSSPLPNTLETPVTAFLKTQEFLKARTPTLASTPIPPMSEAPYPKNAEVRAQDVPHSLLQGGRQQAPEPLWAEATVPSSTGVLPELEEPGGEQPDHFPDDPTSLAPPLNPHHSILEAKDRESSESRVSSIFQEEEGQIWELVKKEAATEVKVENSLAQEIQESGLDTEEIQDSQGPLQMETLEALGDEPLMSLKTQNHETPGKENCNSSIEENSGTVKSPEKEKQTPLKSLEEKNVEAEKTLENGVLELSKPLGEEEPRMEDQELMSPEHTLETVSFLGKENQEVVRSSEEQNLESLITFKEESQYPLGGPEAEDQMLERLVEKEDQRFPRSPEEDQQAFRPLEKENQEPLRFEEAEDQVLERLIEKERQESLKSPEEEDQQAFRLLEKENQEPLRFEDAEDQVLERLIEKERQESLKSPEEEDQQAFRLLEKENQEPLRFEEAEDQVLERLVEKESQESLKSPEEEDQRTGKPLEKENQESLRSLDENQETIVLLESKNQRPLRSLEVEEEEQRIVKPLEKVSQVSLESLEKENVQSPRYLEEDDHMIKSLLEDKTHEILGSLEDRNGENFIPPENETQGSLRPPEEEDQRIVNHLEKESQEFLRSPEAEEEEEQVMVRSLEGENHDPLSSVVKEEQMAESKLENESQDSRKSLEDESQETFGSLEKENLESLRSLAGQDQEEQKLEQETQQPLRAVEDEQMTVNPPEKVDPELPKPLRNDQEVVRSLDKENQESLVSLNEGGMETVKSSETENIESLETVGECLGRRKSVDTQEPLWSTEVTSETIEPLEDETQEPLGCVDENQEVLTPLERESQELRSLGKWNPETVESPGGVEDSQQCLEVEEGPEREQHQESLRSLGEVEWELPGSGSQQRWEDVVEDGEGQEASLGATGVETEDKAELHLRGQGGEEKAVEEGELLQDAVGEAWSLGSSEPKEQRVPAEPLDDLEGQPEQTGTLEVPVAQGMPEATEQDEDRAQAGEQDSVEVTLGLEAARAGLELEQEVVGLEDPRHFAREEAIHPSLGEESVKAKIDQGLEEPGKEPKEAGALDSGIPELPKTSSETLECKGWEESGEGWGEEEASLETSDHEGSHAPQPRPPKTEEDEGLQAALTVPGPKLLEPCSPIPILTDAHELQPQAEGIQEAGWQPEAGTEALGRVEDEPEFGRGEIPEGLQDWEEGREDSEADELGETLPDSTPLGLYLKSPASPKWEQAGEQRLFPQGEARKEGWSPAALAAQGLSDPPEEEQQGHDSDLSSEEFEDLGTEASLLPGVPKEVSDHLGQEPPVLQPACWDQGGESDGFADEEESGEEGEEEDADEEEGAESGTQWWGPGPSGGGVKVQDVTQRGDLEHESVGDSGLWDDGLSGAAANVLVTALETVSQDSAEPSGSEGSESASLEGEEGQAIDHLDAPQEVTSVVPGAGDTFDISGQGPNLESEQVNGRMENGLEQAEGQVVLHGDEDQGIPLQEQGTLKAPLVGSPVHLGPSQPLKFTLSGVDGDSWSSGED
UniProt P21263: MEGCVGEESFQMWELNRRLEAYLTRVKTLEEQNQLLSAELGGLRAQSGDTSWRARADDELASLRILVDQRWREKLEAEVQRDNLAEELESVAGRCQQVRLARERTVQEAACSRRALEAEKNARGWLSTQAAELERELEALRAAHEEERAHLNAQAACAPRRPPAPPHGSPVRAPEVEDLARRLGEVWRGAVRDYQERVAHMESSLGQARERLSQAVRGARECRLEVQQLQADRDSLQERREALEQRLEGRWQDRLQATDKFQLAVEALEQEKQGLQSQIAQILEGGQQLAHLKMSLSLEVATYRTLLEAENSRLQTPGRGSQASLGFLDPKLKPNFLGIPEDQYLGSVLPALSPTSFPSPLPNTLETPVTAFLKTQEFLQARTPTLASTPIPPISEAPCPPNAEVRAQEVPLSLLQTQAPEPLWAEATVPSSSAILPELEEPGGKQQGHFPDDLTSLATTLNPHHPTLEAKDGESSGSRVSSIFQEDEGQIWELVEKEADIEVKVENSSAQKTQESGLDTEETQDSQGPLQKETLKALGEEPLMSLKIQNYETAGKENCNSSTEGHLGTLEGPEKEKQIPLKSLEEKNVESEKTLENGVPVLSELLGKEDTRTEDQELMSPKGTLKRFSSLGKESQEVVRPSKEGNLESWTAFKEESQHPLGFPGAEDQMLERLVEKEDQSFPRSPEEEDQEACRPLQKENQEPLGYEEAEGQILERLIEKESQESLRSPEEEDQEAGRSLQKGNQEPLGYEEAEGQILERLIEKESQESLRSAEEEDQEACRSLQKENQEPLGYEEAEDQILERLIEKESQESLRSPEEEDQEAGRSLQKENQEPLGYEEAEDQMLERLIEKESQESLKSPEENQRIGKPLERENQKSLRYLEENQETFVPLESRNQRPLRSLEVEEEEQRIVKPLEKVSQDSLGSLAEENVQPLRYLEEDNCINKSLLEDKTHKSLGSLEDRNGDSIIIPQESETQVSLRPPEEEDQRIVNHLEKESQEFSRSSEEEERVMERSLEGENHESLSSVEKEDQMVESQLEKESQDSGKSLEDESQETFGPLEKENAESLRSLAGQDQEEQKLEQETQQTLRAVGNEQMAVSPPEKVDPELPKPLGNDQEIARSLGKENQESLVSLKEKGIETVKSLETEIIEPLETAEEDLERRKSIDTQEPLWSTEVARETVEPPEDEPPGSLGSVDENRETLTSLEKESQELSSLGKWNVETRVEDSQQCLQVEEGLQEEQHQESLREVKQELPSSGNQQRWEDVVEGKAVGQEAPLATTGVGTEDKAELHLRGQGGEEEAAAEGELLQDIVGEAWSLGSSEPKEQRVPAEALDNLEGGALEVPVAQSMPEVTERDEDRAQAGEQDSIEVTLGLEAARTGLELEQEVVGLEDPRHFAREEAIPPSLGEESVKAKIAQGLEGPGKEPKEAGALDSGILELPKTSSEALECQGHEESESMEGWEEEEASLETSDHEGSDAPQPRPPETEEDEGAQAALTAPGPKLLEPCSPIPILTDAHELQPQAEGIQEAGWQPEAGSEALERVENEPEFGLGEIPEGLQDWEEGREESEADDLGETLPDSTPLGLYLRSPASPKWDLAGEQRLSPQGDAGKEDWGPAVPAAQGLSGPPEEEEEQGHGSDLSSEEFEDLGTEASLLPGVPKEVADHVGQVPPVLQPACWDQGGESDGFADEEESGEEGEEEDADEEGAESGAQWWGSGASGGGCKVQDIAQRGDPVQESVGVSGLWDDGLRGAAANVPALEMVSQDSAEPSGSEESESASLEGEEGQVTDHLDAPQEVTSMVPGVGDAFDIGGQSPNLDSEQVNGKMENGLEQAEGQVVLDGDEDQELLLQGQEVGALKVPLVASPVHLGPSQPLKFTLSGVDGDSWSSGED
UniProt P08670: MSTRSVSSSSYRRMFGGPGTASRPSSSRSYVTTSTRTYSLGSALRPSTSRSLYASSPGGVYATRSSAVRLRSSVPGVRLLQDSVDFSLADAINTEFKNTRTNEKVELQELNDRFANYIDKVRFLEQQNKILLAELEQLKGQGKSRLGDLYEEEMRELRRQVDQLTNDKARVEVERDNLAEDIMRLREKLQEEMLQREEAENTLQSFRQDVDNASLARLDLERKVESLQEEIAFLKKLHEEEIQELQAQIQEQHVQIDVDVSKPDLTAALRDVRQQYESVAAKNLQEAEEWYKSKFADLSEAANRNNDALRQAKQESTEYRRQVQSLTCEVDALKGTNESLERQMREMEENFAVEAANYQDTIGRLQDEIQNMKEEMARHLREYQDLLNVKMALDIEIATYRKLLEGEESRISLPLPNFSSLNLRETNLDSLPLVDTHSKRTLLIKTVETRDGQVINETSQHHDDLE
UniProt Q15078: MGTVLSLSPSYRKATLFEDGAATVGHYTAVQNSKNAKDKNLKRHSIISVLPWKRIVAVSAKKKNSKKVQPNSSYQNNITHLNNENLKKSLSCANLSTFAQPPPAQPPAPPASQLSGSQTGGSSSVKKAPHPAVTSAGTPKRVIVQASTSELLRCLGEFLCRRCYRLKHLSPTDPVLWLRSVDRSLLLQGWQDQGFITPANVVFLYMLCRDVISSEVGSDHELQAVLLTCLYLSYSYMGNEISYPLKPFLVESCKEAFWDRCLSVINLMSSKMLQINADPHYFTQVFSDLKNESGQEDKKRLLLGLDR
UniProt O35274: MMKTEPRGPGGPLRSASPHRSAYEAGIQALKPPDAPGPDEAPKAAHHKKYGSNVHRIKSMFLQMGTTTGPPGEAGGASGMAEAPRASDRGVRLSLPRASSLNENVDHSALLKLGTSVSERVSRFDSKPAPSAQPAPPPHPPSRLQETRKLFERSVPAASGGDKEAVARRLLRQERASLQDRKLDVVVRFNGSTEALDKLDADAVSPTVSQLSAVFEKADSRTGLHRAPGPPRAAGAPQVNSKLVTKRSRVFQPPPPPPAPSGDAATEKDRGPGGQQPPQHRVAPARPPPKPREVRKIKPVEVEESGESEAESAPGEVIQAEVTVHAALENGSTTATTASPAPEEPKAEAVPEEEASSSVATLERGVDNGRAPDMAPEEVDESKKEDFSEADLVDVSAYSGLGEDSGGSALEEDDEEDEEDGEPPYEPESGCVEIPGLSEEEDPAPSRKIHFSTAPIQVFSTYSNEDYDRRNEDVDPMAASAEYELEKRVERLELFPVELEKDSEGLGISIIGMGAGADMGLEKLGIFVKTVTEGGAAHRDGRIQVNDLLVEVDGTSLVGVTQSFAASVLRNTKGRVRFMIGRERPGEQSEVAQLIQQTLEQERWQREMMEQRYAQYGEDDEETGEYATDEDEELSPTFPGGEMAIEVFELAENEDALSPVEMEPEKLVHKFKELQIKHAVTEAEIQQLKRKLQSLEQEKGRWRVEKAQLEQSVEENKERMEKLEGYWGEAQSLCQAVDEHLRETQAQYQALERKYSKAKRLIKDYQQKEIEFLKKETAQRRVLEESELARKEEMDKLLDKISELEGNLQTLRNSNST
UniProt O43602: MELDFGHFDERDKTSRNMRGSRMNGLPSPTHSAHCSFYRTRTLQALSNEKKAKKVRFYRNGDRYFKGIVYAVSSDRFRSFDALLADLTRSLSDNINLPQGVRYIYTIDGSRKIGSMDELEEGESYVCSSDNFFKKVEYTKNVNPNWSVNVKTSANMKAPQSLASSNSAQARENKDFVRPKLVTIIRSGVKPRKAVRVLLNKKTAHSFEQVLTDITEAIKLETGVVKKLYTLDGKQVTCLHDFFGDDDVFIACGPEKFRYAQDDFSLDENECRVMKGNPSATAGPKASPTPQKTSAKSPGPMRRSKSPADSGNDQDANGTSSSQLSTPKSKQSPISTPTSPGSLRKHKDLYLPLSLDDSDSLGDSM

Nestin-myc (mouse) [2] = molecular target: Nestin-myc (mouse) (UniProt Q6P5H2)
[3] = molecular target: T2, DCX (endogenous, E16 mouse cortical neurons, 1 DIV) (mouse (endogenous in E16 cortical neurons)) (UniProt O88809)
T2 sequence: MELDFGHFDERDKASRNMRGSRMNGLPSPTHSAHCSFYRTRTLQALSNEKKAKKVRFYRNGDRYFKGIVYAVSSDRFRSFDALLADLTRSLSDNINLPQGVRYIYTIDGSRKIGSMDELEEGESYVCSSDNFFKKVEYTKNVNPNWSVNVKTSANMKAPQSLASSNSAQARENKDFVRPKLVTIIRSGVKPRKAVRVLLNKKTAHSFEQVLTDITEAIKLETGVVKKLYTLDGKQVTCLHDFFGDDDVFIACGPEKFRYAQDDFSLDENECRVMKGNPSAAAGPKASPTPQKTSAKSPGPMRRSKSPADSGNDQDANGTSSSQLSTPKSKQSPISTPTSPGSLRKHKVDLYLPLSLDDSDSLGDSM

Nestin-myc T316A (mouse) = Nestin-myc T316A (mouse) (UniProt Q6P5H2)
Nestin-myc T316D (mouse) = Nestin-myc T316D (mouse) (UniProt Q6P5H2)
Nestin-myc (mouse) [4] = molecular target: Nestin-myc (mouse) (UniProt Q6P5H2); remark: listed apart in the source
[5] = molecular target: nestin (endogenous, E17 rat brain) (rat (endogenous in E17 rat brain)) (UniProt P21263)
[6] = molecular target: T1, DCX (endogenous, E17 rat brain) (rat (endogenous in E17 rat brain)); remark: listed apart in the source

Molecule: GFP-FAK (from UniProt Q05397 1-1052)
- binding (Nestin-myc (mouse) [2]): no binding

Molecule: vimentin (endogenous, HEK293) (from UniProt P08670 1-466)
- binding (Nestin-myc (mouse) [2]): binds
- binding (Nestin-myc T316A (mouse)): binds
- binding (Nestin-myc T316D (mouse)): binds

Molecule: p35 (from UniProt Q15078 1-307)
- binding (Nestin-myc (mouse) [2]): binds
- binding (Nestin-myc T316A (mouse)): binds

Molecule: spinophilin (SPN) (endogenous, E17 rat brain) (from UniProt O35274 1-817)
- binding [1]: binds

B2: DCX (endogenous, E17 rat brain) (protein, UniProt Q9ESI7 1-365)
chain: T1 sequence
- binding [5]: binds

B3: Drebrin-YFP (protein, UniProt Q16643 1-649)
chain: MAGVSFSGHRLELLAAYEEVIREESAADWALYTYEDGSDDLKLAASGEGGLQELSGHFENQKVMYGFCSVKDSQAALPKYVLINWVGEDVPDARKCACASHVAKVAEFFQGVDVIVNASSVEDIDAGAIGQRLSNGLARLSSPVLHRLRLREDENAEPVGTTYQKTDAAVEMKRINREQFWEQAKKEEELRKEEERKKALDERLRFEQERMEQERQEQEERERRYREREQQIEEHRRKQQTLEAEEAKRRLKEQSIFGDHRDEEEETHMKKSESEVEEAAAIIAQRPDNPREFFKQQERVASASAGSCDVPSPFNHRPGSHLDSHRRMAPTPIPTRSPSDSSTASTPVAEQIERALDEVTSSQPPPLPPPPPPAQETQEPSPILDSEETRAAAPQAWAGPMEEPPQAQAPPRGPGSPAEDLMFMESAEQAVLAAPVEPATADATEIHDAADTIETDTATADTTVANNVPPAATSLIDLWPGNGEGASTLQGEPRAPTPPSGTEVTLAEVPLLDEVAPEPLLPAGEGCATLLNFDELPEPPATFCDPEEVEGESLAAPQTPTLPSALEELEQEQEPEPHLLTNGETTQKEGTQASEGYFSQSQEEEFAQSEELCAKAPPPVFYNKPPEIDITCWDADPVPEEEEGFEGGD
- binding (Nestin-myc (mouse) [4]): no binding

Next, values leading:

- binding [1]: binds
Molecule: nestin (endogenous, E17 rat brain) (from UniProt P21263 1-1893)

- binding [3]: binds
Molecule: nestin (endogenous, E16 mouse cortical neurons, 1 DIV) (from UniProt Q6P5H2 1-1864)

- binding (Nestin-myc (mouse) [4]): binds
B1: GFP-DCX dephosphorylated with lambda phosphatase (protein, UniProt O43602 1-365)
chain: T1 sequence with A14T, L98P
modifications: dephosphorylated with lambda phosphatase (reduced pS297 levels)

- binding [6]: no binding
B4: drebrin (endogenous, E17 rat brain) (protein, UniProt Q07266 1-707)
chain: MAGVSFSGHRLELLAAYEEVIREESAADWALYTYEDGSDDLKLAASGEGGLQELSGHFENQKVMYGFCSVKDSQAALPKYVLINWVGEDVPDARKCACASHVAKVAEFFQGVDVIVNASSVEDIDAGAIGQRLSNGLARLSSPVLHRLRLREDENAEPVGTTYQKTDAAVEMKRINREQFWEQAKKEEELRKEEERKKALDARLRFEQERMEQERQEQEERERRYREREQQIEEHRRKQQSLEAEEAKRRLKDQSIFGDQRDEEEESQMKKSESEVEEAAAIIAQRPDNPREFFRQQERVASASGGSCDAPSPFNHRPGRPYCPFIKASDSGPSSSSSSSSSPPRTPFPYITCHRTPNLSSSLPCSHLDSHRRMAPTPIPTRSPSDSSTASTPITEQIERALDEVTSSQPPPPPPPPPPAQEAQESAPRLDGEEVCKEAKVAAAPQVWAGCAEEPPRAQEPPLLQSSPTEDLMCTESPEQAVLAASPEPDASVTSVADAHAADTIETTTATTATTIADNVTPAAASLIDLWPGNGEEASTPQAEPRVPTPPSGAEASLAEVPLLNEAAQEPLPPVGEGCANLLNFDELPEPPATFCDPEEEAEGEPLAASQVLTMPSALEEVDQVLEQELEPEPHLLTNGETTQKEGTQQASEGYFSQSQEEEFAQSEEPCAKAPPPVFYNKPPEIDITCWDADPVPEEEEGFEGGD

- binding (Nestin-myc (mouse) [4]): no binding
B5: GFP-DCLK1 (protein, UniProt O15075 1-740)
chain: MSFGRDMELEHFDERDKAQRYSRGSRVNGLPSPTHSAHCSFYRTRTLQTLSSEKKAKKVRFYRNGDRYFKGIVYAISPDRFRSFEALLADLTRTLSDNVNLPQGVRTIYTIDGLKKISSLDQLVEGESYVCGSIEPFKKLEYTKNVNPNWSVNVKTTSASRAVSSLATAKGSPSEVRENKDFIRPKLVTIIRSGVKPRKAVRILLNKKTAHSFEQVLTDITDAIKLDSGVVKRLYTLDGKQVMCLQDFFGDDDIFIACGPEKFRYQDDFLLDESECRVVKSTSYTKIASSSRRSTTKSPGPSRRSKSPASTSSVNGTPGSQLSTPRSGKSPSPSPTSPGSLRKQRSSQHGGSSTSLASTKVCSSMDENDGPGEEVSEEGFQIPATITERYKVGRTIGDGNFAVVKECVERSTAREYALKIIKKSKCRGKEHMIQNEVSILRRVKHPNIVLLIEEMDVPTELYLVMELVKGGDLFDAITSTNKYTERDASGMLYNLASAIKYLHSLNIVHRDIKPENLLVYEHQDGSKSLKLGDFGLATIVDGPLYTVCGTPTYVAPEIIAETGYGLKVDIWAAGVITYILLCGFPPFRGSGDDQEVLFDQILMGQVDFPSPYWDNVSDSAKELITMMLLVDVDQRFSAVQVLEHPWVNDDGLPENEHQLSVAGKIKKHFNTGPKPNSTAAGVSVIATTALDKERQVFRRRRNQDVRSRYKAQPAPPELNSESEDYSPSSSETVRSPNSPF

From article doi:10.1101/695155
